Measurements reported in PubChem BioAssay AID686943 (Drosophila RNAi Screening Center, 2013).

Screen: 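Search across the genome for regulators of signalling from receptor tyrosine kinase to ERK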 (primary screen)
System: Drosophila S2R+ haemocyte-like cells expressing YFP-tagged ERK (Rolled)
Reagent: long dsRNA against Drosophila genes
Challenge: insulin stimulation versus unstimulated cells; dose and duration not given
Read-out: 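Antibody staining for doubly phosphorylated ERK divided by ERK-YFP signal, as plate z-scores, in insulin-treated and untreated cells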
Direction: replicate 1, z-score of dpERK with insulin: higher = more active ERK per ERK-YFP after insulin
In all, the deposit lists about 23,000 reagents; this is an unselected part of those with a known target gene and a result. 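Extra replicates exist only for a retested subset of genes; insulin dose and duration not given; both raised and lowered dpERK matter.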 The numbers tell different reagents against one gene apart. Not all columns of the deposit are shown. Not stated in the record: the amount of reagent, the time to read-out.

CG14096 — replicate 1, z-score of dpERK with insulin: 0.43
CG32638 — replicate 1, z-score of dpERK with insulin: 1.15
ND-B18 — replicate 1, z-score of dpERK with insulin: 0.81
Cpr47Ef #1 — replicate 1, z-score of dpERK with insulin: 0.22
Cpr47Ef #2 — replicate 1, z-score of dpERK with insulin: -0.34
PolD2 — replicate 1, z-score of dpERK with insulin: 0.16
CG14069 — replicate 1, z-score of dpERK with insulin: -0.18
r-cup — replicate 1, z-score of dpERK with insulin: -0.52
Amy-p — replicate 1, z-score of dpERK with insulin: -0.21
CG2493 — replicate 1, z-score of dpERK with insulin: -0.26
CG13000 — replicate 1, z-score of dpERK with insulin: -2.07
Vrp1 — replicate 1, z-score of dpERK with insulin: -1.4
CG3184 — replicate 1, z-score of dpERK with insulin: -0.25
FipoQ — replicate 1, z-score of dpERK with insulin: -1.03
CG9815 — replicate 1, z-score of dpERK with insulin: 0.93
Sgp — replicate 1, z-score of dpERK with insulin: 0.59
CG17819 — replicate 1, z-score of dpERK with insulin: -1.06
CG42523 — replicate 1, z-score of dpERK with insulin: -1.12
CG4806 — replicate 1, z-score of dpERK with insulin: 0.79
CG16704 — replicate 1, z-score of dpERK with insulin: 0.03
CG8543 #1 — replicate 1, z-score of dpERK with insulin: 0.18
CG8543 #2 — replicate 1, z-score of dpERK with insulin: 1.5

Part of the list above, reformatted:
Target gene | reagent | replicate 1, z-score of dpERK with insulin
CG32638 | 1 | 1.15
ND-B18 | 1 | 0.81
